Source: patent US20100227767A1, “STOCHASTIC CONFINEMENT TO DETECT, MANIPULATE, AND UTILIZE MOLECULES AND ORGANISMS” (priority 2007, published 2010)
At least one compound was matched to its structure with a doubt left.

System: Methicillin Resistant S. aureus (MRSA, ATCC#43300)
Assay: plug-based microfluidic antibiotic susceptibility screen with alamarBlue viability indicator
Details: FIG. 2c; breakpoint concentration; negative control VCM, positive control blank

C[C@H]1COc2c(N3CCN(C)CC3)c(F)cc3c(=O)c(C(=O)O)cn1c23 [LVF, levofloxacin]
plug fluorescence compared to positive and negative controls (unpaired t-test): statistically different than positive controls
